Screen size: about 53,000 sequences; about 3,700 (7%) were called active.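 How the source made its calls: active means gene knockdowns whose robust z-score for IL-1 alpha signal is at least 2 or at most -2, so actives lie on both sides; inactive means the rest.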 The list shows a part of the results.
Assay: Components of the Cytosolic LPS Sensing Pathway: Gene Identification via Genome-wide siRNA Screen;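 further: robust z of the log signal after scaling to non-targeting control siRNA wells of the plate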
Settings: RAW264.7 macrophages, IL-1a HTRF, actives lie on both sides, screened at 100 nM (by protocol), cells primed 5 h with Pam3CSK4 first
In short: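 Using IL-1a HTRF as read-out, the screen measured release from RAW264.7 cells after 48h siRNA knockdown (100 nM), 5 h Pam3CSK4 priming and 24 h cytosolic LipidA. Values were expressed relative to negative-control wells as robust z-scores.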

Sequence	z-score
GGGCAUUGGCAAGAAAAAGTT against Ahdc1	inactive: -0.543
GGAAGGAUUCUGGAAACAGTT against 2210409E12Rik	active: -2.1
GGACUUAAGGCCCUUUUUGTT against Elovl3	inactive: -1.22
GCUCACAAGGUACCUAUUATT against Frmd3	inactive: -1.73
GGUCAAGAAGAGUAUAGUGTT against Hras	inactive: -1.33
GGAAUUUUGGUAGGUUUUATT against Tlcd4	inactive: 1.36
CAUUCGUUGAAGAAAGUGATT against N4bp2	inactive: -0.92
GGAAGUGAAGAGAUCCUUATT against Olfr148	inactive: 0.86
GGUUUAAGCUUUUUGUGGATT against D130079A08Rik	inactive: 0.0133
GGAAAAUCACUUCAUUCACTT against Ltk	inactive: 0.893
GGUGAUGCUAAAUUCUGAUTT against Mpc2	inactive: -1.92
GCGGUGGUUAUCCUAGAAATT against Hivep2	inactive: -1.34
GGUUCCUAGAUAAGAUUCGTT against Itm2b	inactive: 0.0844
GGAAGAAAGCAGAACAAGGTT against Armcx3	inactive: -0.98
GGACUACCAAUACGAACUGTT against Il23a	active: 2.22
GGAAAGGACAAGAAAAUUUTT against Strn	active: -2.03
GGAAUAAGGAGCUGAAGAATT against Olfr63	inactive: 0.627
GGAACAUGAAGUGGAAAAATT against Vps33a	inactive: -0.632
GGAGAUCACCUACGACAUGTT against Lgals8	inactive: 0.446
GGGCAUGCAUAGCUACUAUTT against Tmprss6	inactive: 1.82
GGCUUAUCAGUCCAUGAAGTT against Dhrs11	inactive: -0.601
GGAACCUAACCUAAGUAGUTT against B530045E10Rik	inactive: -1.26

Sequence	z-score
GGAGGUGAUGAUAAUCAAUTT against Trmt61a	inactive: 0.497
GGGAAUCUUCUUUCAGACCTT against Cphx1	inactive: 0.149
GGAUGUGCCAUUGAAGAUCTT against Atg4c	active: 2.07
GCUGCUAGCAAAAAGAACUTT against Yaf2	active: 2.24
GGGCUGGGUCUUCAUAAUUTT against 6330549D23Rik	inactive: 1.14
GGUGAGGAUUUAUUUGAAGTT against Fkbp5	inactive: -0.409
CCAGCCAAGACUAAGAAACTT against Mbd1	inactive: -0.424
GCUGUUGGUCUGAUAGCUUTT against Hadhb	inactive: 0.378
CGAUAGACCAAAUUUUAUGTT against Trim37	inactive: 0.032
AGAAUCUUUAAAGGAAGUCTT against Olfr325	inactive: 0.229
GGGUAUUGAGUUCAAAAUUTT against Dld	inactive: 0.346
GGAUGACCAUGAUCACAAATT against Mtus2	inactive: -0.295
CGGGACCUUGUUGAUAACUTT against Tmem130	inactive: 0.811
GGAAUAUUAUCUGAUCUGUTT against Abca4	inactive: 1.04
GGAGACAAUAUGGGACAUGTT against Ddb2	inactive: 0.607
GCAUAAUUUCAGUGGCAAATT against Fbxw14	inactive: 1.13
GGUGCAAAGCACAGAUAUATT against Mob1b	inactive: 0.776
GGAUCAACAGUCAAUUGUGTT against Tax1bp1	active: -2.16
CCAUUGUUUGACUCAAAACTT against Gjc3	inactive: 0.62
GGAAAGAAGAAACAUUCCUTT against Socs5	inactive: 0.495
GGGUUUUUGAUGAUGAUUCTT against Htatsf1	inactive: -0.66
CGGGAUCUUCACUCUCUGATT against Timd4	inactive: 0.11

Copied from the list.
In z-score, GGUGAGGAUUUAUUUGAAGTT against Fkbp5 reads inactive: -0.409
In z-score, GGAAAGAAGAAACAUUCCUTT against Socs5 reads inactive: 0.495
In z-score, GGUGCAAAGCACAGAUAUATT against Mob1b reads inactive: 0.776

The list continues.

Sequence	z-score
GGAGAUGGAUGAUAUGGAGTT against Ifi30	inactive: 0.00856
GCCUUUUGACGCAAAAACATT against Myh8	inactive: -0.833
CGUUGUUUAUUCCAAAGAGTT against Runx1	inactive: 0.44
GGAGAAAGCCUUCCAAUUUTT against Kel	inactive: -0.273
GGUUAAAGUCUGUGGAUUUTT against Aff4	inactive: 1.56
GGGAAAGGAUAAAGAUUUUTT against Hmgcs1	inactive: -0.396
GGGAUGCCGAAGACAAUAGTT against Vmn1r197	inactive: -0.345
GGAUAAAAGCAUUUGAGUCTT against Acp1	inactive: 0.694
GGAUCUGGAGAAGAUGUUCTT against Efhd1	inactive: -0.512
GGCGUGUUGGAACAAGGAUTT against Cops8	inactive: 0.379
CGACUGCCCAUAAGAAAACTT against Csl	inactive: -0.975
GGAGUUGUCGCACUACAUGTT against Bicd2	inactive: 0.449
GGUCAUAGCCCUCUACAUATT against Rgr	inactive: -0.914
GGCACACUUUCUACCUAAUTT against Tmem26	inactive: 0.606
GGAGGAGCUCCAUUUAUGCTT against Zfp65	inactive: 0.859
GGCCAACCUUGGUCUUAUGTT against Gpr146	inactive: -0.787
CCGUGUACUUUGGAUCUGGTT against Cox7c	inactive: 0.622
CGAUGAGAUGCGUAUUGAGTT against Card11	inactive: 0.601
CGGAUCUUAUCAGAACAUGTT against Zfp638	inactive: 0.201
GCAACUCAAUCCAUGCAAATT against Senp8	inactive: 0.622
GGUUAUGCUGGAGAUAAAUTT against Lama1	inactive: -1.5
GGCUGUGAUCUCCUGGCUUTT against Rnft2	inactive: -1.46

Sequence	z-score
GCAUACUACAUGAUGUGGUTT against Spag7	inactive: 0.77
GGAUACCAUAGCAGAUCCATT against Fahd2a	inactive: 0.289
GGCUGUGAUUAGAGGAUGATT against Dnajc5	inactive: 0.333
CCUCAACUUUUCAAAAGACTT against Dlx5	inactive: -0.466
GGAGCAGAUAAUGUACAUATT against Cep112	active: 2.32
CCUCGGAUAACGAAGCUAATT against Hoxc10	inactive: -1.31
GGCAGCUGGAAAGACAAAATT against Snca	inactive: 1.19
GGAGAAGUAAAACUCGAAGTT against Rwdd2a	inactive: 0.276
CCAACGCGAACGAGAACUATT against C1qb	inactive: -0.0813
GGCUUUAACCGCAUCAUAGTT against G6pd2	inactive: -0.785
GCGGGCUUAUAGGAAGAAGTT against Prss28	inactive: 0.709
GGGUUUUCUUACAAAGAACTT against Hoxb2	inactive: -0.681
GGAGUUGUGACUACGGAGATT against Zfp952	inactive: 0.619
GGAAGGAGAAAAUGGAACUTT against Il12rb2	inactive: -0.574
AUUCUGCAAGUGCCGUAUGTT against Fcrlb	inactive: 0.115
GGCUAAAGAAUGUUAUCAGTT against Ttc12	inactive: 0.302
CGUAAUCUUCAUCUUAGUATT against Olfr613	inactive: 0.601
GGAAGUCAGUGAAAAAAUUTT against Csn1s2a	inactive: -0.437
GGAUGCCAAUUACUUUCUATT against Chst9	inactive: 0.475
GCUUGUUAAAAACGAAUUCTT against Ccer1	inactive: 0.688
GGUAUUUAGCCUUGCAUACTT against Sfswap	inactive: 0.5
GCCCUCUGAUAUGUUGAACTT against Lrr1	inactive: 0.559

Shown with each value named: part of the list above
GCAUAAUUUCAGUGGCAAATT against Fbxw14
  z-score: inactive: 1.13
GGAAGUCAGUGAAAAAAUUTT against Csn1s2a
  z-score: inactive: -0.437

More records follow:

Sequence	z-score
GCAUCACAAAUAUGCUUCUTT against Tas2r120	inactive: -0.368
GGGUUUCUUCGUGUCUAUUTT against Pth2r	inactive: 1.56
GCCAACCUAGCAACUCAAGTT against Ankrd42	inactive: -1.1
GCUGUGCCCUAAAGACUGGTT against Clec2m	active: 2.27
GGAAUCAAACUGGAUUGAUTT against Pi4k2b	active: 2.01
GGCUAUCUAAUCUUCCCGGTT against Ints9	inactive: -0.388
CCGAAGAUGUUCCUCGGAATT against Rpl6	inactive: 0.162
GGCACCAUCUAUUAUUUUCTT against Psmc3	active: -2.45
GGAGGACAUGGACACAGUCTT against Slc39a7	inactive: -0.805
GCUUCCCUGCCGUGAUGAUTT against Git1	inactive: -1.15
GGAAACCUAUUGUAUACAATT against Il33	inactive: 0.9
GCUGGGUUUACCUUCCUGATT against Olfr601	inactive: 0.351
AGUCGCCAACCUAUUAUUUTT against Inka1	inactive: -0.518
GGAACUGUGGUUUUCUACCTT against Rgs8	inactive: -1.3
GGAAAGAAUAGCAGCGUGGTT against Echs1	inactive: 1.14
CCUUAAGUUAGCUUUAGUUTT against Pop4	inactive: 1.01
GGAAAGUCGUCGUAACUAUTT against Dnajc4	inactive: -0.812
CCAACGUAAGAAAUUCAGATT against Smoc1	inactive: 0.466
GGCCUAAAUAAGGAUGUGATT against Gdpd3	inactive: -1.03
GCAAAUUCUGACUUACUAATT against Ankfn1	inactive: 0.61
